# Measured values reported in patent US7718671B2, “Substituted arylthiourea derivatives useful as inhibitors of viral replication” (Achillion Pharmaceuticals, Inc., priority 2003, dated 2010).
# Some entries share one result that the patent states for a list of compounds. For at least one compound, name, drawing or mass did not settle the structure.
# Tested on: Hepatitis C replicon
# Assay: HCV replicon assay (NPT level by captured ELISA in replicon-containing cells)
# Format: cell-based, Hepatitis C virus
# Conditions: Huh-7 HCV replicon-containing cells, three days incubation; call rule not given here
# Method: The compounds claimed herein were tested for the ability to inhibit viral replication of the Hepatitis C replicon in cultured cells in which the HCV replicon construct has been incorporated. The HCV replicon system was described by Bartenschlager, et. al (Science, 285, pp. 110-113 (1999)). The replicon system is predictive of in vivo anti-HCV activity; compounds that are active in humans uniformly evidence activity in the replicon assay.
# HCV replicon-containing cells are treated with different concentrations of interferon alpha, a known inhibitor of HCV replication, as a positive control and with different concentrations of the test compound. The replicon assay system includes Neomycin Phosphotransferase (NPT) as a component of the replicon itself in order to detect the transcription of replicon gene products in the host cell. Cells in which the HCV is actively replicating have high levels of NPT; the level of NPT is proportional to HCV replication. […] The NPT level of each sample is measured using a captured ELISA.
# A protocol for testing compounds for the ability to inhibit viral replication of the Hepatitis C replicon cultured cells in which the replicon construct has been incorporated, follows.
# 9A. HCV Replicon and Replicon Expression
# The HCV genome consists of a single ORF that encodes a 3000 amino acid polyprotein. The ORF is flanked on the 5′ side by an untranslated region that serves as an internal ribosome entry site (IRES) and at the 3′ side by a highly conserved sequence necessary for viral replication (3′-NTR). The structural proteins, necessary for viral infection, are located near the 5′ end of the ORF. The non-structural proteins, designated NS2 to NS5B comprise the remainder of the ORF.
# The HCV replicon contains, 5′-3′, the HCV-IRES, the neomycin phosphotransferase (neo) gene, the IRES of encephalomyocarditis virus, which directs translation of HCV sequences NS3 to NS5B, and the 3′-NTR. The sequence of the HCV replicon has been deposited in GenBank (Accession no. AJ242652).
# The replicon is transfected into Huh-7 cells using standard methods such as electroporation.
# The equipment and materials include, but are not limited to, Huh-7 HCV replicon-containing cells, maintenance media (DMEM (Dulbecco's modified Eagle media) supplemented with 10% FBS, L-glutamine, non-essential amino acids, penicillin (100 units/ml), streptomycin (100 micrograms/ml), and 500 micrograms/ml of Geneticin G418), screening media (DMEM supplemented with 10% FBS, L-glutamine, and non-essential amino acid, penicillin (100 units/ml) and streptomycin (100 micrograms/ml)), 96 well tissue culture plates (flat bottom), 96 well plates (U bottom for drug dilution), Interferon alpha for positive control, fixation reagent (such as methanol: acetone), primary antibody (rabbit anti-NPTII), secondary antibody: Eu—N1l, and enhancement solution.
# HCV replicon-containing cells support high levels of viral RNA replicon replication when their density is suitable. Over confluency will cause a decrease of viral RNA replication. Therefore, cells must be kept growing in log phase in the presence of 500 micrograms/ml of G418. Generally, cells should be passed twice a week at 1: 4-6 dilution. Cell maintenance is conducted as follows:
# HCV replicon-containing cells are examined under a microscope to ensure that cells growing well. Cells are rinsed once with PBS and 2 ml trypsin is added. The cell/trypsin mixture is incubated at 37° C. in a CO2 incubator for 3-5 minutes. After incubation 10 ml of complete media is added to stop the trypsinization reaction. Cells are blown gently, put into a 15 ml tube, and spun at 1200 rpm for 4 minutes. The trypsin/medium solution is removed. Medium (5 ml) is added and the cells are mixed carefully. The cells are counted.
# The cells are then seeded onto 96-well plates at a density of 6000-7500 cells/100 ul/well (6-7.5×10^5 cells/10 ml/plate). The plates are then incubated at 37° C. in a 5% CO2 incubator. […]
SMILES,inhibition of HCV replicon replication,EC50 [µM]
"NC(=S)Nc1cccc(OCc2ccc(F)c(F)c2)c1 [Compound 14, 1-(3-(3,4-difluorobenzyloxy)phenyl)thiourea]",active inhibitors of HCV replicon replication,
"CC(NC(N)=S)c1ccc(Oc2ccccc2)cc1 (stereo not shown) [Compound 46, 1-(1-(4-phenoxyphenyl)ethyl)thiourea]",active inhibitors of HCV replicon replication,
"CCC[C@H]1CC[C@H](c2ccc(NC(N)=S)cc2)CC1 [Compound 31, 1-(4-((1s,4r)-4-propylcyclohexyl)phenyl)thiourea]",active inhibitors of HCV replicon replication,
"NC(=S)Nc1ccc(Oc2ccccc2)cc1 [Compound 36, 1-(4-phenoxyphenyl)thiourea]",active inhibitors of HCV replicon replication,
"NC(=S)NCc1ccc(OCc2ccc(-c3ccccc3)cc2)cc1 [Compound 42, 1-(4-(4-phenyl-benzyloxy)benzyl)thiourea]",active inhibitors of HCV replicon replication,
"NC(=S)Nc1ccc2c(c1)OC(c1ccccc1)O2 (stereo not shown) [Compound 19, 1-(2-phenylbenzo[d]-[1,3]dioxol-6-yl)thiourea]",active inhibitors of HCV replicon replication,
"NC(=S)NC1(c2ccc(Oc3ccccc3)cc2)CCCCC1 [Compound 48, 1-(1-(4-phenoxyphenyl)cyclohexyl)thiourea]",active inhibitors of HCV replicon replication,
"COc1cccc(Cc2cccc(NC(N)=S)c2)c1 [Compound 35, 1-(3-(3-methoxybenzyl)phenyl) thiourea]",active inhibitors of HCV replicon replication,
"C[C@H](Oc1cccc(NC(N)=S)c1)c1ccccc1 [Compound 16, 1-(3-((S)-1-phenylethoxy)phenyl)thiourea]",active inhibitors of HCV replicon replication,
"NC(=S)NCCc1cccc(OCc2ccccc2)c1 [Compound 50, 1-(3-(benzyloxy)phenethyl)thiourea]",active inhibitors of HCV replicon replication,
"NC(=S)Nc1ccc(N2CCC3CCCCC3C2)cc1 (stereo not shown) [Compound 26, 1-(4-(octahydroisoquinolin-2(1H)-yl)phenyl)thiourea]",active inhibitors of HCV replicon replication,
"NC(=S)NCc1ccccc1 [Compound 47, 1-benzylthiourea]",active inhibitors of HCV replicon replication,
"NC(=S)Nc1ccc(N2CCCC3CCCCC32)cc1 (stereo not shown) [Compound 27, 1-(4-(octahydroquinolin-1(2H)-yl)phenyl)thiourea]",active inhibitors of HCV replicon replication,
"NC(=S)Nc1cccc(-c2ccccc2)c1 [Compound 22, 1-(3-(phenyl)phenyl)thiourea]",active inhibitors of HCV replicon replication,
"CC(C)(NC(N)=S)c1ccc(Oc2ccccc2)cc1 [Compound 44, 1-(2-(4-phenoxyphenyl)propan-2-yl)thiourea]",active inhibitors of HCV replicon replication,
"NC(=S)NCc1ccc(-c2ccccc2)cc1 [Compound 57, 1-(4-phenylbenzyl)thiourea]",active inhibitors of HCV replicon replication,
"NC(=S)Nc1cccc(Cc2ccccc2)c1 [Compound 5, 1-(3-Benzyl-phenyl)-thiourea]",active inhibitors of HCV replicon replication,
"CCCCCOc1ccc(NC(N)=S)cc1F [Compound 12, 1-(3-Fluoro-(4-Pentyloxy)-phenyl)-thiourea]",active inhibitors of HCV replicon replication,

SMILES,inhibition of HCV replicon replication,EC50 [µM]
"NC(=S)Nc1ccc(-c2ccccc2)cc1 [Compound 23, 1-(4-(phenyl)phenyl)thiourea]",active inhibitors of HCV replicon replication,
"CCCCOC(=O)C1(c2ccccc2)CCN(c2cccc(NC(N)=S)c2)CC1 [Compound 17, butyl 4-phenyl-1-(3-thioureidophenyl)piperidine-4-carboxylate]",active inhibitors of HCV replicon replication,
"NC(=S)Nc1cccc(OCc2cccc(C(F)(F)F)c2)c1 [Compound 53, 1-(3-(3-(trifluoromethyl)benzyloxy)phenyl)thiourea]",active inhibitors of HCV replicon replication,
"CCCCOC(=O)C1CCN(c2ccc(NC(N)=S)cc2F)CC1 [Compound 38, butyl 1-(2-fluoro-4-thioureidophenyl)piperidine-4-carboxylate]",active inhibitors of HCV replicon replication,
"Cc1cc(NC(N)=S)ccc1N1CCCCC1 [Compound 51, 1-(3-(methyl)-4-(piperidin-1-yl)phenyl)thiourea]",active inhibitors of HCV replicon replication,
"NC(=S)Nc1cccc(OCc2ccccc2)c1 [Compound 1, 1-(3-Benzyloxy)Phenylthiourea]",active inhibitors of HCV replicon replication,< 1
"CCCCCCCOc1ccc(NC(N)=S)cc1C(F)(F)F [Compound 39, 1-(4-(heptyloxy)-3-(trifluoromethyl)phenyl)thiourea]",active inhibitors of HCV replicon replication,
"NC(=S)NCc1ccc(Oc2ccccc2)cc1 [Compound 55, 1-(4-phenoxybenzyl)thiourea]",active inhibitors of HCV replicon replication,
"NC(=S)NC1Cc2ccccc2C1 [Compound 49, 1-(2,3-dihydro-1H-inden-2-yl)thiourea]",active inhibitors of HCV replicon replication,
"CC(NC(N)=S)c1ccc(OCc2ccccc2)cc1 (stereo not shown) [Compound 40, 1-(1-(4-(benzyloxy)phenyl)ethyl)thiourea]",active inhibitors of HCV replicon replication,
"CCCCCOc1ccc(NC(N)=S)cc1 [Compound 6, 1-(4-Pentyloxy-phenyl)-thiourea]",active inhibitors of HCV replicon replication,
"CCCCc1ccc(CNC(N)=S)cc1 [Compound 59, 1-(4-butylbenzyl)thiourea]",active inhibitors of HCV replicon replication,
"CCCCCc1ccc(NC(N)=S)cc1 [Compound 7, 1-(4-Pentyl-phenyl)-thiourea]",active inhibitors of HCV replicon replication,
"NC(=S)NCc1ccc(OCc2ccccc2)cc1 [Compound 41, 1-(4-(benzyloxy)benzyl)thiourea]",active inhibitors of HCV replicon replication,
"NC(=S)NC(c1ccccc1)(c1ccccc1)c1ccccc1 [Compound 58, 1-tritylthiourea]",active inhibitors of HCV replicon replication,
"NC(=S)Nc1cccc(OC2Cc3ccccc3C2)c1 [Compound 13, 1-(3-(indan-2-yloxy)phenyl)thiourea]",active inhibitors of HCV replicon replication,
"NC(=S)Nc1ccc(N2CCCCC2)c(C(F)(F)F)c1 [Compound 32, 1-(3-(trifluoromethyl)-4-(piperidin-1-yl)phenyl)thiourea]",active inhibitors of HCV replicon replication,
"NC(=S)Nc1cccc(OCCc2ccccc2)c1 [Compound 21, 1-(3-(phenethyloxy)phenyl)thiourea]",active inhibitors of HCV replicon replication,
